Results are given in words; binding and its absence hold for the method and conditions named. Some binding calls cover weakened binding; strength is not graded here.
Target: human W3785-hProl.ECD.His (Human-TNFR2-His) protein (human) (UniProt P20333)
Assay: BLI (Octet Red96e), antibody on AHC sensor

Protein sequences, listed by entry. Tags and fused reporters are not part of them. Residues count along the entry.
UniProt P20333, residues 23-257: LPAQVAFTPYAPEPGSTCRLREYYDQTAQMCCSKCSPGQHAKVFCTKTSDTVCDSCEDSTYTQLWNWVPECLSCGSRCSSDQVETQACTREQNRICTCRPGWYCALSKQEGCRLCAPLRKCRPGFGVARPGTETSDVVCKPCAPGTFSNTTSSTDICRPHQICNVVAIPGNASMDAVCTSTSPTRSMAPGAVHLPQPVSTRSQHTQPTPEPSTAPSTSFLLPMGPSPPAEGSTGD

B1: Antibody 28 (antibody, V domains shown)
VH: EVQLVQSGAEVKKPGATVKISCKVSGYSITDYLLHWVQQAPGKGLEWMGWIDPEDAKTKYGQKFQSRVTITADTSTDTAYMELSSLRSEDTAVYYCAANSATGTMDAWGQGTLVTVSS
VL: DIVMTQSPATLSVSPGERATLSCKASQNVGSNVDWYQQKPGQSPRVLIYKASIRYTGIPARFSGSGSGTEFTLTISILQSEDFAVYFCMQSKSYPITFGQGTKLEIK
notes: captured on AHC sensors
For B1, the binding was “binds”.
